Laboratory results: patent publication US12285487B2, “Liquid topical pharmaceutical nano-emulsion formulations” (JRX BIOTECHNOLOGY, INC., priority 2012, dated 2025)

Experiment: Optical microscopic examination of neat API dry powder
Format: physicochemical
Source text: Neat API: For optical microscopic/image analysis examination the material was used as received. A small aliquot was placed on a clean microscope slide and a clean glass coverslip placed on top.
The optical microscope was a Zeiss Model Std 25 fitted with a 40× objective. The particle size analyzers were the Horiba LA 950 (LD) and a Malvern NanoSizer 90Z (DLS). The Raman spectrometer was a Horiba XploRA Raman Microscope.

COc1ccc2cc(C(C)C(=O)O)ccc2c1 (stereo not shown) [Naproxen, 2-(6-methoxynaphthalen-2-yl)propanoic acid]
particle size prior to formulation: ~100 microns
